Source: US6756390B2, “Organic acid salt of amlodipine” (CJ Corp., priority 2002, dated 2004)
Where a name gives a salt, the structure may show the parent alone. At least one structure is not confirmed: it was looked up by name or label, or the drawing left a doubt.

Test: Light stability, 4 weeks at 25° C. with exposure to daylight, HPLC
Type: physicochemical
Settings: Hydrochloride
Description: A measurement was made of the contents of the salts with resort to HPLC under the same conditions as in the chemical stability test.

With `CCOC(=O)C1=C(COCCN)NC(C)=C(C(=O)OC)C1c1ccccc1Cl` (centres unmarked) [Hydrochloride, Amlodipine Hydrochloride] the “Content (HPLC), Stored 4 weeks, 25° C. daylight” value (4 weeks, 25° C., daylight) was 60.5% and the “Content (HPLC), Initial” value (initial) was 99.0%.
